Consider one molecule from patent US20040081637A1.

By UniProt entry, the sequences of proteins in these tests, tags left out. Residues count along the entry.
UniProt P78310, residues 20-365: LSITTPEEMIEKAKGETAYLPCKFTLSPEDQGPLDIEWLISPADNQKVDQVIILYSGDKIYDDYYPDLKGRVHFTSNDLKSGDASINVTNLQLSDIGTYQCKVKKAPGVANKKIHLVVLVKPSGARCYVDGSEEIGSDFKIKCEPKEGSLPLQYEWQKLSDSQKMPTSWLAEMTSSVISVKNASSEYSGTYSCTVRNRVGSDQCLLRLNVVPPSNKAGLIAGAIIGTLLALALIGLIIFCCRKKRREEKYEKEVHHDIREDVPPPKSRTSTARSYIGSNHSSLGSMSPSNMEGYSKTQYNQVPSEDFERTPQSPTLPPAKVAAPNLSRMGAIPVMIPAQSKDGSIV

The test has as its target coxsackieadenovirus receptor (CAR) on 911 cells (UniProt P78310). The test is described as follows: FACS blocking assay on 911 cells expressing CAR.

No constants are given. Whether binding was seen depends on the method and setting. Some entries that bind do so weakly or less than the wild type.

B1: recombinant adenovirus type 5 fiber-knob protein (protein)
chain: TGAITVGNKNNDKLTLWTTPAPSPNCRLNAEKDAKLTLVLTKCGSQILATVSVLAVKGSLAPISGTVQSAHLIIRFDENGVLLNNSFLDPEYWNFRNGDLTEGTAYTNAVGFMPNLSAYPKSHGKTAKSNIVSQVYLNGDKTKPVTLTITLNGTQETGDTTPSAYSMSFSWDWSGHNYINEIFATSSYTFSYIAQE
Consider B1, for which the binding result was “binds”.
